Three substances from paper PMC4794898 can be followed below.

The chains behind the UniProt entries cited, without tags or fusion partners. Residues count along the entry.
UniProt Q8ILV1: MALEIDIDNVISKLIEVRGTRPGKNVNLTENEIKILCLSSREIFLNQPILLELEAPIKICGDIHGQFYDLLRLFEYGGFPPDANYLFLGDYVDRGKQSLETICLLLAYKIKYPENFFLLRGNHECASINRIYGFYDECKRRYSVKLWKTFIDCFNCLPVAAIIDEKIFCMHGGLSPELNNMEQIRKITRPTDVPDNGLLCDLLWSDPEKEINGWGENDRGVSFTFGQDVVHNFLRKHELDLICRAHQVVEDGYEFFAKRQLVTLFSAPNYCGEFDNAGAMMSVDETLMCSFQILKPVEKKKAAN
UniProt P02769, residues 25-607: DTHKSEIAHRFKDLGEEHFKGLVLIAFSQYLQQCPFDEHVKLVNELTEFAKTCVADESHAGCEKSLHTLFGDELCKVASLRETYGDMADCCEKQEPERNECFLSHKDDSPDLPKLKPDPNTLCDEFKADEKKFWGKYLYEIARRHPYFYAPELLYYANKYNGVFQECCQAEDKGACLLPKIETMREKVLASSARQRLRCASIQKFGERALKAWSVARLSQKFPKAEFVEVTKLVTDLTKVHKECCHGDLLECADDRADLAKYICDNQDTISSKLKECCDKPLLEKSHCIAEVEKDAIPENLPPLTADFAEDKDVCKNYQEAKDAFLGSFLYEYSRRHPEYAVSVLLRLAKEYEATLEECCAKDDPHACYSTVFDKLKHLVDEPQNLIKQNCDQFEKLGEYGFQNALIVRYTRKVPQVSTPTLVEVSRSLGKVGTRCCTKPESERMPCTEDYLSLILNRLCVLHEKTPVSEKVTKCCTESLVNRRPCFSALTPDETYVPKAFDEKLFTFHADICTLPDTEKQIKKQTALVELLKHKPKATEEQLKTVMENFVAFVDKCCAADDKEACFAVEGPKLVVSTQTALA
UniProt Q8IKK7: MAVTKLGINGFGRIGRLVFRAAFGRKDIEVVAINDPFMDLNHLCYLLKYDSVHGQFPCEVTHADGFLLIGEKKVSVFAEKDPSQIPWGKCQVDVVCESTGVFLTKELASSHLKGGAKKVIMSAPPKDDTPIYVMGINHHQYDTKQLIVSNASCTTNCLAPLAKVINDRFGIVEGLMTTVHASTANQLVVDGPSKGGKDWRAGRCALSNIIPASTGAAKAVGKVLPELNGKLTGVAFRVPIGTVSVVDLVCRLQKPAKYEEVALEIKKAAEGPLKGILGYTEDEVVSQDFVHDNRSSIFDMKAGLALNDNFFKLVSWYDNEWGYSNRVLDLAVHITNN
UniProt Q8IC05: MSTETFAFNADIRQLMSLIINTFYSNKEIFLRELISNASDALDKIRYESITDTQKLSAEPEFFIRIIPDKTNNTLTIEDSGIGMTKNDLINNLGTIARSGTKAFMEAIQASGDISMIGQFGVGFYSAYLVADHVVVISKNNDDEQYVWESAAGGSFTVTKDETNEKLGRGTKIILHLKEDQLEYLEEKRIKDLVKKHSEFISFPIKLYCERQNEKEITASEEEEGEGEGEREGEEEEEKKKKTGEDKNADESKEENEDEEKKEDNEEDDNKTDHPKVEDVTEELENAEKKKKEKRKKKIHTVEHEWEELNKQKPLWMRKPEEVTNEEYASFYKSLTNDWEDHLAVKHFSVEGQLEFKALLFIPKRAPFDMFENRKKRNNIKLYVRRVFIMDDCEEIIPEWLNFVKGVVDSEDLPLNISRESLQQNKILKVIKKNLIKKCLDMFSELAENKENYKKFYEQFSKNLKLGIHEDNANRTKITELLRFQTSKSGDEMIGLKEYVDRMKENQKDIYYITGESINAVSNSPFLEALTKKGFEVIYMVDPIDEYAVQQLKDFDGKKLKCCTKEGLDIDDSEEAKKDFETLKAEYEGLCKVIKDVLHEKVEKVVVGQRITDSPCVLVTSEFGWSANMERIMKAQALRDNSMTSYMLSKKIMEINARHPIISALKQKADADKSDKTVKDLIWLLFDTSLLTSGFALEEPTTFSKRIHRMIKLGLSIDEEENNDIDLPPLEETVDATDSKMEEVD

The target in assay [1] is P. falciparum protein phosphatase type-1 (PfPP1) recombinant protein, coupled to Sepharose (Plasmodium falciparum) (UniProt Q8ILV1). In words: affinity purification with mass spectrometry; PfPP1 (or BSA as control) covalently coupled to Sepharose beads; precleared total soluble extract of blood stage parasites, overnight at 4 °C; 5 washes with 50 mM Tris, 0.3 M NaCl; elution with 3 M NaSCN; SDS-PAGE, stained bands cut for MS/MS; only the target purified.

Assay [2] has as its target BSA (bovine (from the name BSA)) (UniProt P02769). The description is as above.

These are yes or no findings as the source states them, for the method shown. Binding seen in cells or lysates may run through a third protein. A yes stands for co-enrichment or nearness to the bait. Other partners may have been found. For part of these data: No binding means not detected with the bait.

Take “glyceraldehyde-3-phosphate dehydrogenase (GAPDH) (from UniProt Q8IKK7 1-337)”: the binding entry in assay [1] is “binds”; in assay [2], “no binding”.

As to “heat shock protein 90 (HSP90) (from UniProt Q8IC05 1-745)”, the binding entry is “binds” in assay [1] and “no binding” in assay [2].

As for “protein disulfide isomerase (PDI8) (from UniProt C0H4Y6)”, the binding entry is “binds” in assay [1] and “no binding” in assay [2].
